# Most values lie at the floor of the assay. Slopes are relative: functional sequences can read slightly below zero.
# Test system: Saccharomyces cerevisiae PS128 hsf1 delta, HSF1(1-493) fusion
# Assay: growth estimate (transactivation domain function in HSF1 fusion, heat-shock survival) (a.u. (slope of normalised read count over time)); higher = stronger growth at 37°C, i.e. more transactivation activity
# Conditions: library: random library
row,Substance,growth estimate
1,NDEVSSKFVIGCSMIDPSLP,< -0.25
2,NDGVVGAKIQIWEGNRKTGN,< -0.25
3,NDLALLSSKRYSRQENILVN,< -0.25
4,NDPRKFESLLLH,< -0.25
5,NDRTCKSEHSIPDNPPRTNI,< -0.25
6,NDTPRRFVEALSHSRRRVSW,< -0.25
7,NDVRGLTSPRSCV,< -0.25
8,NDVWSKQSRRAQYIVYRSSI,< -0.25
9,NEFKQSNL,< -0.25
10,NEISRCLVLVVRSAPHSLSN,< -0.25
11,NEKCQGITRRRPT,< -0.25
12,NELKGYGSK,< -0.25
13,NELR,< -0.25
14,NERGRGSWFTLGVDMNLASE,< -0.25
15,NETAMGFPELPGSPLPVRCT,< -0.25
16,NEVFDGQRHTSESGGCSPGC,< -0.25
17,NEVHGVVSTDHVCHYLVGWV,< -0.25
18,NEWLRKPAALLGVRHKKDGV,< -0.25
19,NFHV,< -0.25
20,NFLLPEAVSGHGCFVLDCNP,< -0.25
21,NFMTLSLNGA,< -0.25
22,NFQLSAWPMNIGQTEDENRN,< -0.25
23,NFRTTRSRLPWYSSKNIART,< -0.25
24,NFSVQECMGVL,< -0.25
25,NFVLGRSAVSVLGLWQRCGG,< -0.25

# No new results follow: an excerpt of the list.
row,Substance,growth estimate
6,NDTPRRFVEALSHSRRRVSW,< -0.25
7,NDVRGLTSPRSCV,< -0.25
8,NDVWSKQSRRAQYIVYRSSI,< -0.25
9,NEFKQSNL,< -0.25
10,NEISRCLVLVVRSAPHSLSN,< -0.25

# The listing continues.

row,Substance,growth estimate
1,NFYLLHKKSDGAGFWRGGSH,< -0.25
2,NGAERLGAHPARGSRATMGR,< -0.25
3,NGCGKWCSQDATDSAGERSA,< -0.25
4,NGDQYTENLPWPSGTAVSKR,< -0.25
5,NGEATTV,< -0.25
6,NGEVRPDLLPGNGASLSRGS,< -0.25
7,NGFLPSTEILAK,< -0.25
8,NGFRLGGGQLCVQHIVLGIV,< -0.25
9,NGHCQQTRLTFRWRDCSEPS,< -0.25
10,NGHCTCGRPP,< -0.25
11,NGKEVLEPRIDRVQVGILGV,< -0.25
12,NGKLCPG,< -0.25
13,NGKLRHMHFRFLG,-0.246
14,NGKPHPKHSWWRH,< -0.25
15,NGKRVREGITVIVRTLVHPA,< -0.25
16,NGLCASREL,< -0.25
17,NGLGCEPIAAF,< -0.25
18,NGLVRYVIRFQQVHNPHGAR,< -0.25
19,NGPLWL,< -0.25
20,NGPTGSESRFDETASRRHTD,< -0.25
21,NGQYDLCWGVERLRGEALIA,< -0.25
22,NGRALLKASCLIYTQLVRFL,< -0.25
23,NGRIDVSLVLGFVGHPC,< -0.25
24,NGRIPETVIPGPCK,< -0.25
25,NGRTWPERRATALRGGNPGG,< -0.25

# Look-ups from the entries so far:
# growth estimate, NGKPHPKHSWWRH reads < -0.25
# growth estimate, NGLGCEPIAAF reads < -0.25

# Further entries follow.

row,Substance,growth estimate
1,NGSKRGKA,< -0.25
2,NGVPGRKVNCFRLRMSIPHV,< -0.25
3,NGVRAVR,< -0.25
4,NGWQ,-0.246
5,NGWVLMLTA,< -0.25
6,NGYS,< -0.25
7,NHCSGSAVPPQPLHCMGTGW,< -0.25
8,NHDCHPDDMRRSMGAWVIGR,< -0.25
9,NHDTH,< -0.25
10,NHHGSTSRWPIGPWLGQ,< -0.25
11,NHLCSRLGIVDAEAPGAVVR,< -0.25
12,NHPFRVLQLCSSTLLPVGRC,< -0.25
13,NHRRESGSWFF,< -0.25
14,NHVIYDGFRLDSSKRKMCLA,< -0.25
15,NIAFRFVLAPTCSETDTDRT,< -0.25
16,NIFHAAGGTQPKGYPWVRGG,< -0.25
17,NIGKDCSHPMLQSRARASNT,< -0.25
18,NIIAFIWGHERSSSISIWPV,< -0.25
19,NIKCDWDKS,< -0.25
20,NIKRRRSCGSSTSAFRLPWI,< -0.25
21,NISHFTMRSLDCGPSDKS,< -0.25
22,NIVQRVGGIILDRERGRDA,< -0.25
23,NIWAARIHYMVA,-0.241
24,NKARHDYHRLSMHVQGKHHY,< -0.25
25,NKGSVGTIWKKSAHGIMLTD,< -0.25

row,Substance,growth estimate
1,NKIVR,-0.219
2,NKKSCSL,< -0.25
3,NKNRTSLKCVDPLFQLRLSR,< -0.25
4,NKPLNLLRRLLLPSRAWHQG,< -0.25
5,NLD,< -0.25
6,NLDNGKFRSVAGEMCVGSRL,< -0.25
7,NLDSAPRSLTDGALNIQEVT,< -0.25
8,NLEGLPGIP,-0.134
9,NLENSFSGDPGSSRRVSSPC,< -0.25
10,NLFV,< -0.25
11,NLGGAFWGCTKSYVNCSYGY,< -0.25
12,NLGGSREVAPREAGSVNPPE,< -0.25
13,NLGQFTVEPERYDHRWPGNS,< -0.25
14,NLGSTLSDLEYVCFGGYDYS,353
15,NLKQHADSTCFWVCKR,< -0.25
16,NLLHLRWSS,< -0.25
17,NLLV,< -0.25
18,NLMGLQLVT,< -0.25
19,NLNDSHGAMVRFRTVPDYSC,< -0.25
20,NLNGLPNLTRRGIHAARLKG,0.0232
21,NLPIRTKFVLVRTLGGLH,< -0.25
22,NLPSGGLKWRIIGRICCKGG,-0.246
23,NLQITWSVALLDSLRGSVPA,< -0.25

# — the supplement of paper PMC5949888
